Twelve sequences from the supplement of paper PMC10338343 can be followed below.

± gives the standard deviation. This is a selection; strong and weak results do not stand in their true shares. Many entries were measured with a wide error.

Test [1] has as its system MILI (PIWIL2) piRISC loaded with piRNA #1 (26 nt). In words: pre-steady-state target cleavage rate (min^-1); higher = faster piRNA-guided slicing of the target. The conditions noted are these: guide: piRNA #1 5'p-UGAGGUAGUAGGUUGUAUAGUAUCCA; auxiliary factor: 500 nM mouse GTSF1. The method in brief: (§1)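 The pre-steady-state cleavage rate was derived from a burst-and-steady-state fit of Cleave-'n-Seq data. For these assays, 1 nM active affinity-purified piRISC loaded with a single synthetic guide was mixed with […] a transcribed, DNA-blocked target RNA library in HEPES–potassium acetate buffer at 33 °C, with or without 500 nM GTSF1 partner protein, for 0–8 or 0–960 min. Sequencing counts of uncleaved targets were normalised to depth and to weakly complementary targets, and k3 was capped at 0.0001 min^-1 after three trials were pooled.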

Test [2] deals with MIWI (PIWIL1) piRISC loaded with piRNA #1 (30 nt). Described as above. The note with it: guide: piRNA #1 5'p-UGAGGUAGUAGGUUGUAUAGUAUCCAGAGG; auxiliary factor: 500 nM mouse GTSF1. The method in brief:
as §1

Test [3] deals with EfPiwi piRISC loaded with piRNA #1 (26 nt). The test can be described thus: pre-steady-state target cleavage rate (min^-1); guide: piRNA #1 5'p-UGAGGUAGUAGGUUGUAUAGUAUCCA; MIWI and MILI are mouse PIWI proteins and EfPiwi is from a freshwater sponge; tags in brackets are library labels; higher = faster piRNA-guided slicing of the target. The conditions noted are these: auxiliary factor: 500 nM Ephydatia muelleri Gtsf1. The method in brief:
as §1

Turning to GGAGACCUAUGAUAACUACGUACUACCUCA, the “pre-steady-state target cleavage rate” value was 0.000293 ± 0.0095 in test [1], 0.000274 ± 0.0067 in test [2] and 0.000177 ± 0.015 in test [3].

Consider GGAGACCUAUGAUUUCAACCUACUAGCUCA, for which the “pre-steady-state target cleavage rate” value in test [1] came to 0.00216 ± 0.003; in test [2] it was 0.000142 ± 0.018; in test [3], 0.000318 ± 0.0086.

For GGAGACCUAUGAAUACAACCAACUACGUCA, the “pre-steady-state target cleavage rate” value in test [1] was 0.00249 ± 0.0033; in test [2] it was 0.000288 ± 0.0092; in test [3], 0.000834 ± 0.0089.

As to GGAGACCUAUGAUAUCAACCUAGUACCUCA, the entries for the “pre-steady-state target cleavage rate” value in test [1], in test [2] and in test [3] were 0.000943 ± 0.0044, 0.000303 ± 0.0061 and 0.000368 ± 0.0087, respectively.

With GGAGACCUAUGAAUACAACCCACUACCUCA, the entries for the “pre-steady-state target cleavage rate” value in test [1], in test [2] and in test [3] were 0.00357 ± 0.0039, 0.00115 ± 0.0056 and 0.00112 ± 0.008, respectively.

Turning to GGAGACCUAUGAUAUCAACCUACUACCUUA, the “pre-steady-state target cleavage rate” value is 0.00133 ± 0.0052 in test [1], 0.000229 ± 0.012 in test [2] and 0.000693 ± 0.008 in test [3].

For the sequence GGAGACCUAUGAUUACAACGAUCUACCUCA, the “pre-steady-state target cleavage rate” value in test [1] turned out to be 0.00115 ± 0.0056; in test [2], 0.000541 ± 0.0086; in test [3] it was 0.000745 ± 0.0066.

With GGAGACCUAUGAUUACAACCAAGUACCUCA, the “pre-steady-state target cleavage rate” value in test [1] came to 0.00279 ± 0.0028; in test [2], 0.000863 ± 0.0036; in test [3] it was 0.00085 ± 0.013.

As to GGAGACCUAUGAUAACAUCGUACUACCUCA, the “pre-steady-state target cleavage rate” value in test [1] amounted to 0.000905 ± 0.0053; in test [2], 0.000259 ± 0.0079; in test [3] it was 0.00134 ± 0.008.

Turning to “GGAGUGGAUACUAUACAACCAUGAUGGAGA [g11:g26:cont:t1A]”, the “pre-steady-state target cleavage rate” value in test [1] stood at 0.00117 ± 0.0053; in test [2] it was 0.00047 ± 0.011; in test [3], 0.0021 ± 0.0028.

On to GGAGACCUAUCUAUACAACCUACUAGGUCA, for which the “pre-steady-state target cleavage rate” value came out at 0.000722 ± 0.01 in test [1], 0.00326 ± 0.0037 in test [2] and 0.00219 ± 0.0025 in test [3].

As for GGAGACCUAUCUAUACUAACCUACUACCUCA, the “pre-steady-state target cleavage rate” value in test [1] is 0.000617 ± 0.0094; in test [2] it was 0.000502 ± 0.0093; in test [3] it was 0.000992 ± 0.0052.
